Source: patent US20070155955A1, “Amylin aggregation inhibitors and use thereof” (APPLIED RESEARCH SYSTEMS ARS HOLDING N.V., priority 2003, published 2007)
At least one peptide structure holds a part that was inferred or is arguable (an end, a ring closure or a residue). No end group written: not given here.

Test system: amylin fibrils cytotoxicity in Rin-m5F cells
Experiment: Inhibition of amylin induced cytotoxicity, MTT reduction in pancreatic beta cells
Format: cell-based
Conditions: for % Inhibition Amylin fibrils cytotoxicity: amylin 0.2 mg/ml, peptide 1 mg/ml, pre-incubated 37° C. 48 h, Rin-m5F cells, MTT

Ac-DFGAPL-NH2 (N-terminus and C-terminus assumed) [SEQ ID NO. 3]
% Inhibition Amylin fibrils cytotoxicity: 43%

DFGAPL [SEQ ID NO. 2]
% Inhibition Amylin fibrils cytotoxicity: 40%
IC50 in preventing cytotoxicity relative to amylin concentration used (amylin 2.5, 10, 50 and 100 μM incubated 24 h at 37° C. with peptide, linear relationship with amylin concentration): 1.5-2.7 fold higher than amylin concentrations
estimated peptide concentration in plasma in which a 50% of activity would be reached in vivo (extrapolated from IC50/amylin ratio and amylin concentration in blood): 4 to 6 pM

DFGAPLD [SEQ ID NO. 4]
% Inhibition Amylin fibrils cytotoxicity: 33%

FGAPLD [SEQ ID NO. 17]
% Inhibition Amylin fibrils cytotoxicity: 19%
